{
  "source": "patent US9122153B2",
  "about": "“Cyclic compound, method for producing same, composition, and method for forming resist pattern” (MITSUBISHI GAS CHEMICAL COMPANY, INC., priority 2011, dated 2015)",
  "assay": "Dissolution rate of amorphous film (before and after exposure) in developing solution",
  "type": "physicochemical",
  "details": "amorphous film in developing solution at 23° C.",
  "note": "Some results were stated once for a whole list of compounds, not compound by compound.",
  "data": [
    {"smiles": "Oc1cc(O)c2cc1C(c1ccc(I)cc1)c1cc(c(O)cc1O)C(c1ccc(I)cc1)c1cc(c(O)cc1O)C(c1ccc(I)cc1)c1cc(c(O)cc1O)C2c1ccc(I)cc1", "note": "(stereo not shown) [CR-1]", "values": [
      {"measurement": "dissolution rate after exposure", "result": "≤ 0.1", "unit": "angstrom/sec"},
      {"measurement": "dissolution rate before exposure", "result": "≥ 10", "unit": "angstrom/sec"}
    ]},
    {"smiles": "Oc1cc(O)c2cc1C(c1ccc(CI)cc1)c1cc(c(O)cc1O)C(c1ccc(CI)cc1)c1cc(c(O)cc1O)C(c1ccc(CI)cc1)c1cc(c(O)cc1O)C2c1ccc(CI)cc1", "note": "(stereo not shown) [CR-2]", "values": [
      {"measurement": "dissolution rate after exposure", "result": "≤ 0.1", "unit": "angstrom/sec"},
      {"measurement": "dissolution rate before exposure", "result": "≥ 10", "unit": "angstrom/sec"}
    ]}
  ]
}
